Measured values reported in patent publication US20130259867A1.
Results are given in words; binding and its absence hold for the method and conditions named. Some binding calls cover weakened binding; strength is not graded here.

Chains of the proteins cited; added tags and fusions are not shown. Residues count along the entry.
UniProt P21860, residues 20-643: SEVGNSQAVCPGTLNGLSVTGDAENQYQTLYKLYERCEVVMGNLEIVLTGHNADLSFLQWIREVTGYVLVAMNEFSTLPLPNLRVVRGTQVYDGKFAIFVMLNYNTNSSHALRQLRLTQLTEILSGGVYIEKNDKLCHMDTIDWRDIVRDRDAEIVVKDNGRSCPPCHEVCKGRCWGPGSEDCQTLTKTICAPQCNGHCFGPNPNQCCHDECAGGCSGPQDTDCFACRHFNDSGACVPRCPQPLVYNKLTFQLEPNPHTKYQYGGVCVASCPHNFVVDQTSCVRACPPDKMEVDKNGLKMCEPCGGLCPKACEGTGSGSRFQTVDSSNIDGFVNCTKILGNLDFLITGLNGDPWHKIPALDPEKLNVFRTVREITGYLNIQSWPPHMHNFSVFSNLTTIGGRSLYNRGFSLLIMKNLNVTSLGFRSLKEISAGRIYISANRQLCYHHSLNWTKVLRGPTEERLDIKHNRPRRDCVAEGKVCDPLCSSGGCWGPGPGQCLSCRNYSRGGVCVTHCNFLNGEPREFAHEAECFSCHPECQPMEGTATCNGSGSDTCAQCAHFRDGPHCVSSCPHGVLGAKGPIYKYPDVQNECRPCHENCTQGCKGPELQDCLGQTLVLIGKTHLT

Experiments:
EGFR-ECD [1] = biological target: EGFR-ECD (UniProt P00533); test: competitive binding assay, immobilized EGFR-ECD, soluble HER3-ECD as competitor, OD read-out
HER3-ECD [2] = biological target: HER3-ECD (UniProt P21860); test: competitive binding assay, immobilized HER3-ECD, soluble EGFR-ECD as competitor, OD read-out
EGFR-ECD [3] = biological target: EGFR-ECD (UniProt P00533); test: plate binding assay (FIG. 1), OD read-out
HER3-ECD [4] = biological target: HER3-ECD (UniProt P21860); test: plate binding assay (FIG. 1), OD read-out

Measured: binding

B1: MEHD7945A (bispecific antibody, V domains shown)
VH: EVQLVESGGGLVQPGGSLRLSCAASGFTLSGDWIHWVRQAPGKGLEWVGEISAAGGYTDYADSVKGRFTISADTSKNTAYLQMNSLRAEDTAVYYCARESRVSFEAAMDYWGQGTLVTVSS
VL: DIQMTQSPSSLSASVGDRVTITCRASQNIATDVAWYQQKPGKAPKLLIYSASFLYSGVPSRFSGSGSGTDFTLTISSLQPEDFATYYCQQSEPEPYTFGQGTKVEIKR
binds: all assays above
